Amino acid sequences for entries named in this document (tags omitted). Residues count along the entry.
UniProt P20700: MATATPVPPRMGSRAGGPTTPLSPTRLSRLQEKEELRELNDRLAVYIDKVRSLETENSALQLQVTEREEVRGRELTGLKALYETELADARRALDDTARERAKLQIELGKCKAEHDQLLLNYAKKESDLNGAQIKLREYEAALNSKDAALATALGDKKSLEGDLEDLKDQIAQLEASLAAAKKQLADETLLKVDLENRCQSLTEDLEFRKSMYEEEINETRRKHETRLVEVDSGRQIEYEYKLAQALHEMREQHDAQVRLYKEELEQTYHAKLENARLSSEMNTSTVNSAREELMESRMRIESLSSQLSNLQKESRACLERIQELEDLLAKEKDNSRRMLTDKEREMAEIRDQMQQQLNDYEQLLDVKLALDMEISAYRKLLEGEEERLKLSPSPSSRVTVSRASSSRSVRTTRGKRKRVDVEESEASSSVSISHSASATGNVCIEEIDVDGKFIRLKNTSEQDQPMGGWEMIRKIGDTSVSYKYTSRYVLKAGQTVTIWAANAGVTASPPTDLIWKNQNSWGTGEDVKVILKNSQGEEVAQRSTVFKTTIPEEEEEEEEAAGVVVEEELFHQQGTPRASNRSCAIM
UniProt P02545, residues 1-646: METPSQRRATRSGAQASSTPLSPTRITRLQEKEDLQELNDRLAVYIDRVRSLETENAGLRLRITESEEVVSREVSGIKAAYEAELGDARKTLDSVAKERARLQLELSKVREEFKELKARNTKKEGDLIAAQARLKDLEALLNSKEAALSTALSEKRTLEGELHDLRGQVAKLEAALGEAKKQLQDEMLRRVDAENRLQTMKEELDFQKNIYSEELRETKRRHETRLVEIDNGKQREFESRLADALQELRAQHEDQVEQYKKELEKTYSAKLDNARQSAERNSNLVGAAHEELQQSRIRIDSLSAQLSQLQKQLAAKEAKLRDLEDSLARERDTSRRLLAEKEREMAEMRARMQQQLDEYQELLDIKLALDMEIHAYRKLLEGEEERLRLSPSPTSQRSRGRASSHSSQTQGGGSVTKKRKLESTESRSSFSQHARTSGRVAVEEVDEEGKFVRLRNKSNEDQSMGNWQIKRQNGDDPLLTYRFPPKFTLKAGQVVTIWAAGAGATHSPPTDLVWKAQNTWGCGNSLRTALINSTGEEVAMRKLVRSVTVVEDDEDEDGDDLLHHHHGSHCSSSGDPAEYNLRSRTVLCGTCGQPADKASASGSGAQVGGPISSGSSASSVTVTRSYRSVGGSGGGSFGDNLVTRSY

According to publication PMC5008010:

T1: AKTIP-FLAG fusion protein (UniProt Q9H8T0)
T1 sequence: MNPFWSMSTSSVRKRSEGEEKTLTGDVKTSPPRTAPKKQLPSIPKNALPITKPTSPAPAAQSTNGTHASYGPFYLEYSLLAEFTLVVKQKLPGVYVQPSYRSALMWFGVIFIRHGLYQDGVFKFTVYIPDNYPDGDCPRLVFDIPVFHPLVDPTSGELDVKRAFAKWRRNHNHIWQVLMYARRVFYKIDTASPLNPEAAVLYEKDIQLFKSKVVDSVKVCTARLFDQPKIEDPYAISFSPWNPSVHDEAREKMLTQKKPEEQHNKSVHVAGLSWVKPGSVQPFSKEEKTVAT

B1: lamin B2 (protein, UniProt Q03252 1-620)
chain: MSPPSPGRRREQRRPRAAATMATPLPGRAGGPATPLSPTRLSRLQEKEELRELNDRLAHYIDRVRALELENDRLLLKISEKEEVTTREVSGIKALYESELADARRVLDETARERARLQIEIGKLRAELDEVNKSAKKREGELTVAQGRVKDLESLFHRSEVELAAALSDKRGLESDVAELRAQLAKAEDGHAVAKKQLEKETLMRVDLENRCQSLQEELDFRKSVFEEEVRETRRRHERRLVEVDSSRQQEYDFKMAQALEELRSQHDEQVRLYKLELEQTYQAKLDSAKLSSDQNDKAASAAREELKEARMRLESLSYQLSGLQKQASAAEDRIRELEEAMAGERDKFRKMLDAKEQEMTEMRDVMQQQLAEYQELLDVKLALDMEINAYRKLLEGEEERLKLSPSPSSRVTVSRATSSSSGSLSATGRLGRSKRKRLEVEEPLGSGPSVLGTGTGGSGGFHLAQQASASGSVSIEEIDLEGKFVQLKNNSDKDQSLGNWRIKRQVLEGEEIAYKFTPKYILRAGQMVTVWAAGAGVAHSPPSTLVWKGQSSWGTGESFRTVLVNADGEEVAMRTVKKSSVMRENENGEEEEEEAEFGEEDLFHQQGDPRTTSRGCYVM
B2: matrin 3 (protein, UniProt P43243 1-847)
chain: MSKSFQQSSLSRDSQGHGRDLSAAGIGLLAAATQSLSMPASLGRMNQGTARLASLMNLGMSSSLNQQGAHSALSSASTSSHNLQSIFNIGSRGPLPLSSQHRGDADQASNILASFGLSARDLDELSRYPEDKITPENLPQILLQLKRRRTEEGPTLSYGRDGRSATREPPYRVPRDDWEEKRHFRRDSFDDRGPSLNPVLDYDHGSRSQESGYYDRMDYEDDRLRDGERCRDDSFFGETSHNYHKFDSEYERMGRGPGPLQERSLFEKKRGAPPSSNIEDFHGLLPKGYPHLCSICDLPVHSNKEWSQHINGASHSRRCQLLLEIYPEWNPDNDTGHTMGDPFMLQQSTNPAPGILGPPPPSFHLGGPAVGPRGNLGAGNGNLQGPRHMQKGRVETSRVVHIMDFQRGKNLRYQLLQLVEPFGVISNHLILNKINEAFIEMATTEDAQAAVDYYTTTPALVFGKPVRVHLSQKYKRIKKPEGKPDQKFDQKQELGRVIHLSNLPHSGYSDSAVLKLAEPYGKIKNYILMRMKSQAFIEMETREDAMAMVDHCLKKALWFQGRCVKVDLSEKYKKLVLRIPNRGIDLLKKDKSRKRSYSPDGKESPSDKKSKTDGSQKTESSTEGKEQEEKSGEDGEKDTKDDQTEQEPNMLLESEDELLVDEEEAAALLESGSSVGDETDLANLGDVASDGKKEPSDKAVKKDGSASAAAKKKLKKVDKIEELDQENEAALENGIKNEENTEPGAESSENADDPNKDTSENADGQSDENKDDYTIPDEYRIGPYQPNVPVGIDYVIPKTGFYCKLCSLFYTNEEVAKNTHCSSLPHYQKLKKFLNKLAEERRQKKET

Target: T1, AKTIP-FLAG fusion protein
Test: affinity purification with mass spectrometry; anti-FLAG M2 antibody on G-sepharose beads, 2 mg whole-cell extract of 293T cells transfected with AKTIP-FLAG (72 h); lysis buffer 20 mM Hepes pH 7.5, 150 mM NaCl, 5 mM MgCl2, 0.5 mM EGTA, 0.25% NP-40; mouse IgG as control; LC-MS/MS of gel slices; three independent experiments

Q: For lamin B1 (from UniProt P20700 1-586), which binding is on record?
A: binds

Q: lamin A/C (from UniProt P02545 1-646) was tested. Which binding did it give?
A: binds

Q: Which binding does the source give for B1 here?
A: binds

Q: With B2 as the molecule, how does the binding read?
A: binds

These are yes or no findings as the source states them, for the method shown. In cells and extracts the contact can be indirect. Here binding means that the protein was enriched with, or labelled near, the bait; the list need not be complete. Where a sequence is shown, tags or fusion partners need not be part of it.
